Results reported in the supplement of paper PMC10849652.
The list shows a part of the results.

Protein sequences, listed by entry. Tags and fused reporters are not part of them. Lines headed by an entry give the natural chain unless they say otherwise; changes in a name come on top.
UniProt Q8TAA9: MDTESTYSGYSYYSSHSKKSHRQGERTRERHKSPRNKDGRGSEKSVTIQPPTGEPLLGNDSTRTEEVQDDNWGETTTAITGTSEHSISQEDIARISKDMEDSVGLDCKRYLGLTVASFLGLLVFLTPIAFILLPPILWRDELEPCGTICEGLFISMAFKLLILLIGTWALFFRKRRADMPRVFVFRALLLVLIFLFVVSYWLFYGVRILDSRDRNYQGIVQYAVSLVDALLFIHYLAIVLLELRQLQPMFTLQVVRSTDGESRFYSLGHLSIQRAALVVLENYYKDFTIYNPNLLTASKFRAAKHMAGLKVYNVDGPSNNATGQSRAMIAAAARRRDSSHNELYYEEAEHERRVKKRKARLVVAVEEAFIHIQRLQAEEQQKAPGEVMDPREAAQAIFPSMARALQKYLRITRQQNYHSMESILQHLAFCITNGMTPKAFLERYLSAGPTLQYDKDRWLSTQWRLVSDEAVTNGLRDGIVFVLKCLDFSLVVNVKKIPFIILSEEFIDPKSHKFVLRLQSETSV
UniProt Q6PHR2: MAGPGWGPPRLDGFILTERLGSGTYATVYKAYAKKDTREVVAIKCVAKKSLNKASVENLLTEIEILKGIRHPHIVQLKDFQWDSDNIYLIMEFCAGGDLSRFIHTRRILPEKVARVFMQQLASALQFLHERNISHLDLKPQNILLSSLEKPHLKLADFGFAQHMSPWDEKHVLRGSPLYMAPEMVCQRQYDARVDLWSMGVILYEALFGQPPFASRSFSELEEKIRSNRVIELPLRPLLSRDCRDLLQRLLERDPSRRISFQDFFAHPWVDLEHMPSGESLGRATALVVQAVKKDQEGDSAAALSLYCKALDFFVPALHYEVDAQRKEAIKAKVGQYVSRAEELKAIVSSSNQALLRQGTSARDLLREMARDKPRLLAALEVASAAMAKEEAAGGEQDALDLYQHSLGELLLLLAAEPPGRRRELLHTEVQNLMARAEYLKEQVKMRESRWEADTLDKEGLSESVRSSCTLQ
UniProt Q6UW78: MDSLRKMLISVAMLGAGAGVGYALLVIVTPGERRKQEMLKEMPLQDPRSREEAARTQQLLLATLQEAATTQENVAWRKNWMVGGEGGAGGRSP
UniProt P52735: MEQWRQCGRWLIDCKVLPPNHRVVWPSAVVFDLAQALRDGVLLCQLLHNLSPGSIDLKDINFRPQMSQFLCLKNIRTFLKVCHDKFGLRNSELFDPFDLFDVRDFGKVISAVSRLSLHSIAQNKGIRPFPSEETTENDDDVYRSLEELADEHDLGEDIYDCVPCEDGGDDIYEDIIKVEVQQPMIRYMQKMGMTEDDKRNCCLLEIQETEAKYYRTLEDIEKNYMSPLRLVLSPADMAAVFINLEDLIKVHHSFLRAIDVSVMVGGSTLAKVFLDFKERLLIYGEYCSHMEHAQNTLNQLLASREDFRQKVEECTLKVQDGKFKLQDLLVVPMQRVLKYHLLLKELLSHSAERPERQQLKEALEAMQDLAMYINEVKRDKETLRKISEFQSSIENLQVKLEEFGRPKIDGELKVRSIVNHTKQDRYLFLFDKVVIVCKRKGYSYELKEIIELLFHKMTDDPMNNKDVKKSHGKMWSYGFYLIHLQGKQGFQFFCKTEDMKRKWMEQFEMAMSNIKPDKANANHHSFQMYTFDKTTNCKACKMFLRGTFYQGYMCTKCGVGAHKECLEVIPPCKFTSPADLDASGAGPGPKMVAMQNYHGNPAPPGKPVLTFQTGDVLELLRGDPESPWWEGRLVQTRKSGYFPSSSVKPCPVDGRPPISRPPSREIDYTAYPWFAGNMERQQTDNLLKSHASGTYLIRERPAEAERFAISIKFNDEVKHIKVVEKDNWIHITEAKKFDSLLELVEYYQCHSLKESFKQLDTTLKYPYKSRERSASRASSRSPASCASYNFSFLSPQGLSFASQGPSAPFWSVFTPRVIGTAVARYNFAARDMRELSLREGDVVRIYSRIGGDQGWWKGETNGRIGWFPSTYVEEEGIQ
UniProt Q8NFA0: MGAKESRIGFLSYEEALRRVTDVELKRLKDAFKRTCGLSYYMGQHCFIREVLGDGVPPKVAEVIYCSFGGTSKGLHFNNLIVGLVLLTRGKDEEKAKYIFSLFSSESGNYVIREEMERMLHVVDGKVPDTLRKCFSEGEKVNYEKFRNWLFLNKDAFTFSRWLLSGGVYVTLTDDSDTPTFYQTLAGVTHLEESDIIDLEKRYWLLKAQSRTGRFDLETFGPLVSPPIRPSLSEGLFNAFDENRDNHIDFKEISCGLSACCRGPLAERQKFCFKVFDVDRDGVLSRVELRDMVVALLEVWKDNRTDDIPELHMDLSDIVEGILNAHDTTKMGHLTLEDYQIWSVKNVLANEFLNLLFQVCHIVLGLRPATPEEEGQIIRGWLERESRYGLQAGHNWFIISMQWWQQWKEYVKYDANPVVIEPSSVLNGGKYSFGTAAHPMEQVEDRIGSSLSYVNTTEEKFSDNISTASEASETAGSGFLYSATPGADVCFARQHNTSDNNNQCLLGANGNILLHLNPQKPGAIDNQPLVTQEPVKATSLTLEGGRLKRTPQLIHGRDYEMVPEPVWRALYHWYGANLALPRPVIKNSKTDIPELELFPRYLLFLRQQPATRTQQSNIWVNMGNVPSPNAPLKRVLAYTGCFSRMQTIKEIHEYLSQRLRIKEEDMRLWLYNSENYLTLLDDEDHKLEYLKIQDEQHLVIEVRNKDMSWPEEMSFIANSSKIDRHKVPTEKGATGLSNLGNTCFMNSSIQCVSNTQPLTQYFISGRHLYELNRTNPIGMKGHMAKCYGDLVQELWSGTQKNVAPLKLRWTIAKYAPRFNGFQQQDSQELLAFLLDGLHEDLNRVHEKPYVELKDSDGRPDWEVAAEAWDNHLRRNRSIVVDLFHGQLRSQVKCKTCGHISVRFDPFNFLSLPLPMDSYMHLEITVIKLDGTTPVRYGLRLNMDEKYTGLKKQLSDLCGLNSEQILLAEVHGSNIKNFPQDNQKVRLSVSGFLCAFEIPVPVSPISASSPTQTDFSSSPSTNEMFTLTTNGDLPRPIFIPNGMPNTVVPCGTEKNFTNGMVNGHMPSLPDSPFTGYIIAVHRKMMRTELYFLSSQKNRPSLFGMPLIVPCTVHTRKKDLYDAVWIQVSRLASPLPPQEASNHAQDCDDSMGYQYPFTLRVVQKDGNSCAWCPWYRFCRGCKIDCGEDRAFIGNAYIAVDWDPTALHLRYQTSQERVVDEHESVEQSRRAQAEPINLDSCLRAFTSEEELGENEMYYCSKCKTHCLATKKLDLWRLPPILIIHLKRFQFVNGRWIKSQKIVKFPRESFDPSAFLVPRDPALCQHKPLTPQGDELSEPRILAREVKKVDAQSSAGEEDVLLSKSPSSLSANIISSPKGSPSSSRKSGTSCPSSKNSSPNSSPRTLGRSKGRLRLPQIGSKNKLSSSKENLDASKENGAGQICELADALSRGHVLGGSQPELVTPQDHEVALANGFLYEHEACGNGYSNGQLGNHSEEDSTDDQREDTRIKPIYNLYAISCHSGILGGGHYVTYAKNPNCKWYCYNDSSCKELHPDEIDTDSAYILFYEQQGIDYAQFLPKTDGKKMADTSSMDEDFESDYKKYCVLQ
UniProt Q8NB14: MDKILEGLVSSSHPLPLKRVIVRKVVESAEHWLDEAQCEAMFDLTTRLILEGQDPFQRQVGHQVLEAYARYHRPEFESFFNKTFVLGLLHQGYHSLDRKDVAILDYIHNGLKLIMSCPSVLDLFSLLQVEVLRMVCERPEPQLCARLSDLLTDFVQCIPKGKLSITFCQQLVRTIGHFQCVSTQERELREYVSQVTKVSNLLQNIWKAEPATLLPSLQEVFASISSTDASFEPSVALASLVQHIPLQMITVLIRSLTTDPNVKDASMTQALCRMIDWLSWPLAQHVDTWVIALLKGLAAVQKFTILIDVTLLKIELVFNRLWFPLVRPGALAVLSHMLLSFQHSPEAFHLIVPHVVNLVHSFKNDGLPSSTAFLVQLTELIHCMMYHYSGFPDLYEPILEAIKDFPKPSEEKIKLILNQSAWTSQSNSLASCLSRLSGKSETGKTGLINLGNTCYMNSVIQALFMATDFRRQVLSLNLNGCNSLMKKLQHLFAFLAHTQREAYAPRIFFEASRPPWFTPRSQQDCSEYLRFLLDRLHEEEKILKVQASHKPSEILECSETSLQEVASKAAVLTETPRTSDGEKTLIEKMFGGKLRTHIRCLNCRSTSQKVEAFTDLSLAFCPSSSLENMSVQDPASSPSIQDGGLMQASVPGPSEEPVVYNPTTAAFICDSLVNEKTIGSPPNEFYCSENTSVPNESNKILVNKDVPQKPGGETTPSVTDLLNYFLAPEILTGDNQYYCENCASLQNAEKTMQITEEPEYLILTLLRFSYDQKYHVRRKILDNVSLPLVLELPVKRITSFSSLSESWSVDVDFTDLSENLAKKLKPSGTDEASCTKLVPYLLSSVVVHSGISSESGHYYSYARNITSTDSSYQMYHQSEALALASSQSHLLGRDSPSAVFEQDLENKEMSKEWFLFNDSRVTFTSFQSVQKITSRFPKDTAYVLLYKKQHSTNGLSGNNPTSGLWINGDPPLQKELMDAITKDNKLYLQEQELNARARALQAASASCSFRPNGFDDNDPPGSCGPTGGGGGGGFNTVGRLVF
UniProt Q14146: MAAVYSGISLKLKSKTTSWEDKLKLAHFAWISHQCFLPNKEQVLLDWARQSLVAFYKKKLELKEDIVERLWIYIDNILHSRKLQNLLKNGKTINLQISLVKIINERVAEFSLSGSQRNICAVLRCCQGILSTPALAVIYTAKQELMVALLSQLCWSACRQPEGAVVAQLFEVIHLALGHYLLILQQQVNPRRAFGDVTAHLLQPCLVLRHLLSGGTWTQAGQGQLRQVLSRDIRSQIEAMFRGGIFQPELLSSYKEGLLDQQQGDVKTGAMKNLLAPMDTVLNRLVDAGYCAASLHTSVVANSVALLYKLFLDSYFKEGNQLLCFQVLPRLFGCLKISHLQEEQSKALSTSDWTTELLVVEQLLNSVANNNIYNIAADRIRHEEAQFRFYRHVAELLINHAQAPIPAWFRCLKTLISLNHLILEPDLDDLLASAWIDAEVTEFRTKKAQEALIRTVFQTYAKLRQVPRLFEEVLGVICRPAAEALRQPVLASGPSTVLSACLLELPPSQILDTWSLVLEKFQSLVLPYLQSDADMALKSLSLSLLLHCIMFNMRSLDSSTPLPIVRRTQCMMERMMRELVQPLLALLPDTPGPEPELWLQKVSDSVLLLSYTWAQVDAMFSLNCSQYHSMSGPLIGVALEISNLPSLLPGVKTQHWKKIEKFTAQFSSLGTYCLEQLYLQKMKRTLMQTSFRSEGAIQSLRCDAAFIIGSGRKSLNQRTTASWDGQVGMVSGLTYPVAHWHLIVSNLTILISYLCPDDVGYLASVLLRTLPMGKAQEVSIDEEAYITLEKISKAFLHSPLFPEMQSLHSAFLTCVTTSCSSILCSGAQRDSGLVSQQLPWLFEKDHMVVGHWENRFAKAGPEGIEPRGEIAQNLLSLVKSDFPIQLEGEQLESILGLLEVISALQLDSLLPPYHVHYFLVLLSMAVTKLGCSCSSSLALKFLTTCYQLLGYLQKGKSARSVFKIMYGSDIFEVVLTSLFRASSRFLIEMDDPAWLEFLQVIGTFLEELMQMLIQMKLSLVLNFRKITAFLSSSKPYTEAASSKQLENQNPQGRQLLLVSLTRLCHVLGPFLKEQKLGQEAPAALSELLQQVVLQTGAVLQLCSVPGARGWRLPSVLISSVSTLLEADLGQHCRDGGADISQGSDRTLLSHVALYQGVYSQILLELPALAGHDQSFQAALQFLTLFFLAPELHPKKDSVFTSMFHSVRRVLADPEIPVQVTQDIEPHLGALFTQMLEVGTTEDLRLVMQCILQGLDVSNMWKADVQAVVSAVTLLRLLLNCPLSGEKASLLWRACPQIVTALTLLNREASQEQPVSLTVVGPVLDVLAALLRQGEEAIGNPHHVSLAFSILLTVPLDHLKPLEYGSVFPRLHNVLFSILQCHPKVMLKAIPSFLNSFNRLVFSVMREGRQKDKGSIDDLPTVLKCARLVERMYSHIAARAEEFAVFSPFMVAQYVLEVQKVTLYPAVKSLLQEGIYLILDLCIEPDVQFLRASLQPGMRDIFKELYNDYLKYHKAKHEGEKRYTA
UniProt Q9BTM9: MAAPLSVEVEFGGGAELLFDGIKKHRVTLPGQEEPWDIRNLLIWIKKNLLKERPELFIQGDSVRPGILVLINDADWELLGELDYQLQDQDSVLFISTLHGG
UniProt Q9Y3A2: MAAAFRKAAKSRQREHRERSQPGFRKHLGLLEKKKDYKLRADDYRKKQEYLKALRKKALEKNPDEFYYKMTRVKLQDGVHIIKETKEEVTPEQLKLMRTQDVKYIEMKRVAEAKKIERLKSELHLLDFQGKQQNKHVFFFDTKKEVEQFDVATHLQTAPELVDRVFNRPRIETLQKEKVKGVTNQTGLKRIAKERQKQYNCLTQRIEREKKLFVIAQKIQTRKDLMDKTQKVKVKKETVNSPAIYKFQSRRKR

Key:
Assay in all cases: log2 fold change, soluble protein after heating vs DMSO (PISA); higher = thermal stabilisation; K562 lysate, 10 uM; active = over 0.2 and 3.5 SD of the protein, either way, in both replicates (recomputed)
[1] = compound: CCCS(=O)(=O)Nc1ccc(F)c(C(=O)c2c[nH]c3ncc(-c4ccc(Cl)cc4)cc23)c1F [vemurafenib]
Procedure, shortened: (§1)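 To prepare the extract, K562 pellets were dounce-homogenised in PBS pH 7.4 with 1 mM MgCl2, giving crude material at 1 mg/mL protein. This was treated with 10 μM compound for 30 min, then heated in aliquots for 3 min over 48°C-58°C before pooling and addition of NP-40 to 0.5% at 4°C. Centrifugation at 21,000xg for 90 min left soluble protein in the supernatant, which TMTpro 16plex LC-MS/MS quantified with equalised channel sums. Results are log-two fold changes in thermal stability compared with solvent controls, from duplicates.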

[2] = compound: CCN(CCCOc1ccc2c(Nc3cc(CC(=O)Nc4cccc(F)c4)[nH]n3)ncnc2c1)CCOP(=O)(O)O [barasertib]
Procedure, shortened: as §1

[3] = compound: CC[C@@H]1C(=O)N(C)c2cnc(Nc3ccc(C(=O)NC4CCN(C)CC4)cc3OC)nc2N1C1CCCC1
Procedure, shortened: as §1

[4] = compound: CN1CCN(CCOc2cc(OC3CCOCC3)c3c(Nc4c(Cl)ccc5c4OCO5)ncnc3c2)CC1 [saracatinib]
Procedure, shortened: as §1

[5] = compound: CN1CCN(c2nc(C3=C(c4c[nH]c5ccccc45)C(=O)NC3=O)c3ccccc3n2)CC1 [sotrastaurin]
Procedure, shortened: as §1

[6] = compound: CNC(=O)c1ccc(Nc2ncc(C(F)(F)F)c(NCc3nccnc3N(C)S(C)(=O)=O)n2)cc1 [defactinib]
Procedure, shortened: as §1

[7] = compound: CNc1nc(-c2ccc3c(N)n[nH]c3c2)cc(N2C[C@@H](C(=O)NC3CCCCC3)CC[C@H]2C)n1
Procedure, shortened: as §1

[8] = compound: COC(=O)N[C@@H](C)CNc1nccc(-c2cn(C(C)C)nc2-c2cc(Cl)cc(NS(C)(=O)=O)c2F)n1 [encorafenib]
Procedure, shortened: as §1

[9] = compound: COC(=O)[C@H](CCSC)NC(=O)C1=C(C=C(C=C1)NC[C@H](CS)N)C2=CC=CC=C2
Procedure, shortened: as §1

[10] = compound: CCCS(=O)(=O)Nc1ccc(F)c(C(=O)c2c[nH]c3ncc(Cl)cc23)c1F
Procedure, shortened: as §1

[11] = compound: CC[C@@H]1C(=O)N(C)c2cnc(Nc3ccc(C(=O)N[C@H]4CC[C@H](N5CCN(CC6CC6)CC5)CC4)cc3OC)nc2N1C(C)C [volasertib]
Procedure, shortened: as §1

[12] = compound: CCn1c(C(=O)N(C2CC2)C2CC2)cc2c3c(ncn3C)c(Nc3cc(C)n(C)n3)nc21
Procedure, shortened: as §1

[13] = compound: CCn1cc(-c2ccnc3[nH]c(-c4cccc(CN(C)C)c4)cc23)c(-c2ccc(NC(=O)N(C)C)cc2)n1
Procedure, shortened: as §1

[14] = compound: CN1CCC(CNc2ccc3ncc(-c4cccc(OC(F)(F)F)c4)n3n2)CC1
Procedure, shortened: as §1

[15] = compound: CN1CC[C@H](c2c(O)cc(O)c3c(=O)cc(-c4ccccc4Cl)oc23)[C@H](O)C1 [alvocidib]
Procedure, shortened: as §1

[16] = compound: CN1CCc2c(c3ccccc3n2Cc2ccc(C(=O)NO)cc2)C1 [Tubastatin A]
Procedure, shortened: as §1

[17] = compound: CNC(=O)C1=CC=CC=C1NC2=NC(=NC=C2Cl)NC3=C(C=C(C=C3)N4CCOCC4)OC
Procedure, shortened: as §1

[18] = compound: COc1cc(Nc2ncc3c(n2)-c2ccc(Cl)cc2C(c2c(F)cccc2OC)=NC3)ccc1C(=O)O [alisertib]
Procedure, shortened: as §1

[19] = compound: COc1cc2nc(-c3cc(F)ccc3O)nc(N[C@@H]3CNC[C@H]3C(C)(C)O)c2cc1OC
Procedure, shortened: as §1

[20] = compound: COc1cc2ncnc(Nc3ccc(F)c(Cl)c3)c2cc1OCCCN1CCOCC1 [gefitinib]
Procedure, shortened: as §1

Target	log2 fold change [1]	log2 fold change [2]	log2 fold change [3]	log2 fold change [4]	log2 fold change [5]	log2 fold change [6]	log2 fold change [7]	log2 fold change [8]	log2 fold change [9]	log2 fold change [10]	log2 fold change [11]	log2 fold change [12]	log2 fold change [13]	log2 fold change [14]	log2 fold change [15]	log2 fold change [16]	log2 fold change [17]	log2 fold change [18]	log2 fold change [19]	log2 fold change [20]
UNKL (UniProt E9PDK2)	inactive: -0.118	inactive: 0.047	inactive: -0.075	inactive: 0.002	inactive: -0.05	inactive: -0.008	inactive: -0.042	inactive: 0.044	inactive: 0.106	–	–	–	–	–	–	–	–	–	–	–
VANGL1 (UniProt Q8TAA9)	inactive: -0.075	inactive: 0.101	inactive: 0.004	inactive: 0.044	inactive: 0.125	inactive: 0.078	inactive: 0.054	inactive: -0.011	inactive: -0.072	inactive: 0.023	inactive: -0.009	inactive: 0.105	inactive: -0.088	inactive: 0.058	inactive: 0.005	inactive: 0.088	inactive: -0.054	inactive: -0.023	inactive: -0.071	inactive: 0.011
ULK3 isoform 4 (UniProt Q6PHR2)	inactive: 0.022	inactive: 0.001	inactive: -0.196	inactive: 0.18	inactive: -0.077	inactive: 0.039	inactive: 0.016	inactive: -0.089	inactive: -0.061	inactive: -0.042	inactive: -0.139	–	active: -0.634	inactive: -0.285	inactive: -0.014	–	inactive: 0.004	–	inactive: 0.089	–
UQCC3 (UniProt Q6UW78)	inactive: -0.158	inactive: 0.248	inactive: 0.025	inactive: -0.06	–	inactive: -0.039	inactive: -0.041	inactive: -0.05	inactive: 0.036	inactive: 0	inactive: -0.196	inactive: 0.21	inactive: 0.228	inactive: -0.182	inactive: -0.037	inactive: 0.219	inactive: 0.108	–	inactive: 0.135	–
USP28 isoform 2 (UniProt Q96RU2)	inactive: -0.048	inactive: -0.041	inactive: 0.034	inactive: 0.02	inactive: -0.011	inactive: 0.003	inactive: -0.036	inactive: -0.004	inactive: -0.012	inactive: 0.013	inactive: -0.022	inactive: -0.003	inactive: -0.032	inactive: 0.009	inactive: -0.001	inactive: -0.145	inactive: -0.011	inactive: 0.017	inactive: -0.022	inactive: -0.003
UHRF1 isoform 2 (UniProt Q96T88)	inactive: 0.06	inactive: 0.149	inactive: 0.002	inactive: 0.024	inactive: 0	inactive: -0.018	inactive: -0.01	inactive: -0.012	inactive: 0.039	inactive: 0.031	inactive: -0.012	inactive: -0.026	inactive: -0.022	inactive: -0.022	inactive: 0.01	inactive: -0.152	inactive: -0.019	inactive: -0.001	inactive: -0.024	inactive: 0.011
VAV2 (UniProt P52735)	inactive: 0.042	–	–	inactive: 0.058	–	inactive: -0.089	inactive: 0.179	–	–	inactive: 0.116	inactive: -0.117	–	–	–	–	–	–	–	inactive: 0.137	–
USP32 (UniProt Q8NFA0)	inactive: 0.066	inactive: 0.166	inactive: 0.001	inactive: 0.02	inactive: 0.003	inactive: 0.1	inactive: -0.025	inactive: 0.001	inactive: 0.109	inactive: 0.058	inactive: -0.072	inactive: -0.004	inactive: 0.078	inactive: -0.001	inactive: -0.075	inactive: 0.034	inactive: 0.019	inactive: -0.065	inactive: 0.022	inactive: 0.048
USP38 (UniProt Q8NB14)	inactive: 0.107	inactive: 0.048	inactive: -0.042	inactive: 0.009	inactive: -0.092	inactive: 0.193	inactive: -0.026	inactive: 0.129	inactive: -0.103	inactive: 0.046	inactive: -0.019	inactive: 0.013	inactive: 0.133	inactive: -0.113	inactive: -0.052	inactive: -0.149	–	inactive: -0.068	inactive: -0.032	inactive: 0.037
URB2 (UniProt Q14146)	inactive: 0.017	–	inactive: -0.08	inactive: -0.013	inactive: 0.021	inactive: 0.053	inactive: -0.052	inactive: 0.135	inactive: -0.295	inactive: 0.056	inactive: -0.048	inactive: 0.052	inactive: 0.014	inactive: 0	inactive: -0.23	inactive: -0.12	–	inactive: 0.085	inactive: 0.021	inactive: -0.181
URM1 isoform 2 (UniProt Q9BTM9)	inactive: 0.011	inactive: -0.122	inactive: -0.024	inactive: 0.12	–	inactive: 0.121	inactive: -0.212	inactive: -0.091	inactive: -0.299	inactive: -0.009	inactive: 0.007	inactive: -0.062	inactive: -0.034	inactive: -0.041	inactive: 0.081	inactive: 0.062	inactive: 0.033	inactive: -0.03	inactive: 0.041	inactive: 0.007
UXS1 isoform 2 (UniProt Q8NBZ7)	inactive: 0.005	inactive: -0.092	inactive: 0.031	inactive: 0	inactive: -0.006	inactive: 0.059	inactive: 0.162	inactive: 0.046	inactive: 0.023	inactive: 0.053	inactive: 0	inactive: -0.002	inactive: 0.023	inactive: 0.023	inactive: -0.001	inactive: 0.041	inactive: -0.071	–	inactive: -0.018	–
UTP11 (UniProt Q9Y3A2)	inactive: -0.048	inactive: -0.144	inactive: 0.106	inactive: -0.074	inactive: 0.01	inactive: -0.042	inactive: 0.043	inactive: -0.159	inactive: -0.234	inactive: -0.015	inactive: -0.023	–	inactive: -0.15	inactive: 0.094	inactive: -0.08	–	–	inactive: 0.06	inactive: -0.049	inactive: 0.049

No new results follow: entries from further up.
Target	log2 fold change [1]	log2 fold change [2]	log2 fold change [3]	log2 fold change [4]	log2 fold change [5]	log2 fold change [6]	log2 fold change [7]	log2 fold change [8]	log2 fold change [9]	log2 fold change [10]	log2 fold change [11]	log2 fold change [12]	log2 fold change [13]	log2 fold change [14]	log2 fold change [15]	log2 fold change [16]	log2 fold change [17]	log2 fold change [18]	log2 fold change [19]	log2 fold change [20]
UHRF1 isoform 2 (UniProt Q96T88)	inactive: 0.06	inactive: 0.149	inactive: 0.002	inactive: 0.024	inactive: 0	inactive: -0.018	inactive: -0.01	inactive: -0.012	inactive: 0.039	inactive: 0.031	inactive: -0.012	inactive: -0.026	inactive: -0.022	inactive: -0.022	inactive: 0.01	inactive: -0.152	inactive: -0.019	inactive: -0.001	inactive: -0.024	inactive: 0.011
VAV2 (UniProt P52735)	inactive: 0.042	–	–	inactive: 0.058	–	inactive: -0.089	inactive: 0.179	–	–	inactive: 0.116	inactive: -0.117	–	–	–	–	–	–	–	inactive: 0.137	–
